{"source": "paper PMC7819943", "about": "“Rice protein-binding microarrays: a tool to detect cis-acting elements near promoter regions in rice”", "note": "The other results are listed elsewhere or left out."}
{"molecular_target": "T1, OsSMF1 (Oryza sativa, UniProt Q6ZLB0 1-436)", "T1 sequence": "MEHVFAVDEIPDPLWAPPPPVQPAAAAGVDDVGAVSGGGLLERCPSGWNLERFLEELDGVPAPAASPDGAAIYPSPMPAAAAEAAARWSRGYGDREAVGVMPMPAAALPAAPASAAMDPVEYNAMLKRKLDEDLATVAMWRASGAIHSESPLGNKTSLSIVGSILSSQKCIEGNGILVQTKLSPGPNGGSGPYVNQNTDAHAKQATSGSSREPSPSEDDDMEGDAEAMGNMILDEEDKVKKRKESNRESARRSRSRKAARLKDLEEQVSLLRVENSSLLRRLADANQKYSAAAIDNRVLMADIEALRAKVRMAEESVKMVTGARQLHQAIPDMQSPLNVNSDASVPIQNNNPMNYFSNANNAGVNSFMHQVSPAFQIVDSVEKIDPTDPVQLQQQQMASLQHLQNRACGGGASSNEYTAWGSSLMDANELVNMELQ", "test": "protein-binding microarray (RPBM); PBS, 2% BSA, 51.3 ng/ul salmon testes DNA, 50 uM zinc acetate, 200 nM TF, 25 C, 1 h; high values mean tight binding", "details": "protein: recombinant; tags: N-terminal polyhistidine and DsRed monomer fusion (pET32a); chain copies: 2; label: CyDye5-dUTP incorporated in the synthesized complementary strand; 3' TTTTT single-stranded linker to array surface; dsDNA, one strand shown", "summary_of_the_method": "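Per-feature fluorescence intensity (arbitrary units), read on an Axon 4000B scanner, is the binding signal. Transcription factors carrying an N-terminal polyhistidine tag and DsRed fusion were expressed in E. coli BL21-CodonPlus and purified on Ni–NTA. A custom Agilent array, made double-stranded by primer extension with Cy5-dUTP and blocked with 2% BSA, was incubated with 200 nM protein in PBS, 2% BSA, salmon testes DNA and 50 µM zinc acetate at 25 °C for 1 h and then washed.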"}
{"sequence": "CAGGTAGTGTGCAGTGTAGGTCGTCTGAGTCGGTCAGTTTCGGAGTCACCTAGTGCAG", "binding signal": "4150 fluorescence intensity (a.u.)"}
{"sequence": "GGTAGCTCACCCATTGCCATTCTTTCAAGCTCCCCGTCCACGGAGTCACCTAGTGCAG", "binding signal": "3790 fluorescence intensity (a.u.)"}
{"sequence": "AAACGCTGACAAAACACTGGTCACCGGAAGGCGATAGGTGCGGAGTCACCTAGTGCAG", "binding signal": "4990 fluorescence intensity (a.u.)"}
{"sequence": "TGGTTGGCCGTTGGGCGTGTCATGTGGGCAGGCAGATCACCGGAGTCACCTAGTGCAG", "binding signal": "9270 fluorescence intensity (a.u.)"}
{"sequence": "ATTATGTAATGCCTGTTGATGTCAGACCACTCCAAATGCTCGGAGTCACCTAGTGCAG", "binding signal": "3480 fluorescence intensity (a.u.)"}
{"sequence": "ACAGCACCACCTTGTGCGACCCCACCACCTTGTCCAGCGTCGGAGTCACCTAGTGCAG", "binding signal": "4130 fluorescence intensity (a.u.)"}
{"sequence": "TCTTTGCTAGGATTGAGGACGGTGATGACGCAGAGTTTCGCGGAGTCACCTAGTGCAG", "binding signal": "8970 fluorescence intensity (a.u.)"}
{"sequence": "CGCTCCTCCCCACCTATGCCTTGTCGAGTTGTCATCTTGTCGGAGTCACCTAGTGCAG", "binding signal": "4700 fluorescence intensity (a.u.)"}
{"sequence": "TGGCAAACAGACGATGACGGTGCCACAGATGGATGGCGATCGGAGTCACCTAGTGCAG", "binding signal": "3160 fluorescence intensity (a.u.)"}
{"sequence": "GTGCACACAGCTGGCACGGTGCTATGGGGCGCCACGTAGGCGGAGTCACCTAGTGCAG", "binding signal": "21900 fluorescence intensity (a.u.)"}
{"sequence": "ATGGTCTTGGTTTTGGGCGGCACGGTGGCACCTTTGTGCCCGGAGTCACCTAGTGCAG", "binding signal": "3700 fluorescence intensity (a.u.)"}
{"sequence": "TCGTTTCTTTGCCAGCTGCGCATCCATTCAGCCGGTCGTACGGAGTCACCTAGTGCAG", "binding signal": "4100 fluorescence intensity (a.u.)"}
{"sequence": "GGTGTGTGAAGTGGTGTGTGTCCTCTTCCCAACCAGAAATCGGAGTCACCTAGTGCAG", "binding signal": "3460 fluorescence intensity (a.u.)"}
{"sequence": "GAACACTGGGAGTTACGTGCTGCTTGGTAACATATATGCTCGGAGTCACCTAGTGCAG", "binding signal": "22800 fluorescence intensity (a.u.)"}
{"sequence": "GCCGGATGCGGCGGCGGCGCCGCTCCTTCGGTGGCGTGGCCGGAGTCACCTAGTGCAG", "binding signal": "4280 fluorescence intensity (a.u.)"}
{"sequence": "GATAGTAATGTGACAACATTCTTCTTCTTCTTCTTCTTTACGGAGTCACCTAGTGCAG", "binding signal": "3550 fluorescence intensity (a.u.)"}
{"sequence": "CAATAGTCACAAAGCTGCAAGAACTCCACGTCTCGCATCACGGAGTCACCTAGTGCAG", "binding signal": "3760 fluorescence intensity (a.u.)"}
{"sequence": "GGCCGCGTAGGCGCCACATCAGCCAAAACCACCATCAAAACGGAGTCACCTAGTGCAG", "binding signal": "4590 fluorescence intensity (a.u.)"}
{"sequence": "GTCCGTCGATTGTCTCTCCATGTCAGCAATACCAAATATGCGGAGTCACCTAGTGCAG", "binding signal": "6860 fluorescence intensity (a.u.)"}
{"sequence": "TCTGTAAGATGAAGCCTCTTAGCAGAGATGACTCTCTAAACGGAGTCACCTAGTGCAG", "binding signal": "6940 fluorescence intensity (a.u.)"}
{"sequence": "CTAGTAATGAATAGAAGACCTATGACATGTACAGTCAATGCGGAGTCACCTAGTGCAG", "binding signal": "4470 fluorescence intensity (a.u.)"}
{"sequence": "ACCTTGAAAAGCCATCTCAACCAGTTTACACACGTCACAGCGGAGTCACCTAGTGCAG", "binding signal": "6450 fluorescence intensity (a.u.)"}
{"sequence": "TAATAACCTAATACTGGGCCATGACTAAGCTAATGAATATCGGAGTCACCTAGTGCAG", "binding signal": "29600 fluorescence intensity (a.u.)"}
